The text below walks through data of paper PMC11381189.

Sequences of proteins named here, by UniProt entry; tags and fusion partners are left off. Residues count along the entry.
UniProt P10070: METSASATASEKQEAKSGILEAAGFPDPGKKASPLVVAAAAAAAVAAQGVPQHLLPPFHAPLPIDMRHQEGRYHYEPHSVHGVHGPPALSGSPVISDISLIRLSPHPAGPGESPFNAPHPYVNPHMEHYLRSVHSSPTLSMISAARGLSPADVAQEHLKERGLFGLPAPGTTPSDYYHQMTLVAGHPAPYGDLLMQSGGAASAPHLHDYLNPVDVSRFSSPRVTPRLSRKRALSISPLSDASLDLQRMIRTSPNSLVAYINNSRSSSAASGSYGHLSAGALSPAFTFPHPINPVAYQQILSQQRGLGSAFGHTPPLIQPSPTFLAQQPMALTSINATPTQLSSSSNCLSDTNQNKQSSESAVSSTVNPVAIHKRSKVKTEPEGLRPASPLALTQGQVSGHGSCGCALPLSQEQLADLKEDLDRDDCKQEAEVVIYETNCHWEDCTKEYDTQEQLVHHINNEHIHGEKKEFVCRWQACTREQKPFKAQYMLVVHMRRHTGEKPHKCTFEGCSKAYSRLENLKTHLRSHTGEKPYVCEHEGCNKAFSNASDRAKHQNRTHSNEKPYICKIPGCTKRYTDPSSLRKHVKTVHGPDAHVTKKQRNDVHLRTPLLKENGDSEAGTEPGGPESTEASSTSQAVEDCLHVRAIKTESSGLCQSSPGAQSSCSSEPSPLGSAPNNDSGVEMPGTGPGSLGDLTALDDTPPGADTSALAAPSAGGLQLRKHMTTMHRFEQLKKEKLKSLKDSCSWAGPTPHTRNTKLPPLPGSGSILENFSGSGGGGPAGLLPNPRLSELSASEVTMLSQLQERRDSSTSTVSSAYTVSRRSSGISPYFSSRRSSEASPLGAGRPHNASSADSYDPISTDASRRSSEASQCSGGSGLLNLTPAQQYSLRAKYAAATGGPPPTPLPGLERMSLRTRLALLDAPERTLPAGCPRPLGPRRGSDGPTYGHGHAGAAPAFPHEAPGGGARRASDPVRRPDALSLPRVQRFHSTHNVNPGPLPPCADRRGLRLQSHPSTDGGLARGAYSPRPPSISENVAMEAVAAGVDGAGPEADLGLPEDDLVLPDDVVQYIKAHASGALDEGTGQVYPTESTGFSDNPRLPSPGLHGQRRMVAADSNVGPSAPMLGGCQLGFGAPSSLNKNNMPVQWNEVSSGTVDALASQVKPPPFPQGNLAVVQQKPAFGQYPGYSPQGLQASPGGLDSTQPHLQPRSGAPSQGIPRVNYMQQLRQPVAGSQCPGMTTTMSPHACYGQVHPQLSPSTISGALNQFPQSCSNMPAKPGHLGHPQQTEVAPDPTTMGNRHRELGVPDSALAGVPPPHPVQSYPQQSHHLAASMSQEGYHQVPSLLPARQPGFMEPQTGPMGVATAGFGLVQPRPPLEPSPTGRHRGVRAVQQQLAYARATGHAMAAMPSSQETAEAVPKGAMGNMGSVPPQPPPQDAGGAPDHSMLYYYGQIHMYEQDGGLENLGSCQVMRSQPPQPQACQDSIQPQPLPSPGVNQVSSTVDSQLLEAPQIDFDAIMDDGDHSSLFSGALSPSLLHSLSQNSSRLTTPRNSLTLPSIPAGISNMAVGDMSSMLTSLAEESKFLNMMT
UniProt Q15465, residues 24-462: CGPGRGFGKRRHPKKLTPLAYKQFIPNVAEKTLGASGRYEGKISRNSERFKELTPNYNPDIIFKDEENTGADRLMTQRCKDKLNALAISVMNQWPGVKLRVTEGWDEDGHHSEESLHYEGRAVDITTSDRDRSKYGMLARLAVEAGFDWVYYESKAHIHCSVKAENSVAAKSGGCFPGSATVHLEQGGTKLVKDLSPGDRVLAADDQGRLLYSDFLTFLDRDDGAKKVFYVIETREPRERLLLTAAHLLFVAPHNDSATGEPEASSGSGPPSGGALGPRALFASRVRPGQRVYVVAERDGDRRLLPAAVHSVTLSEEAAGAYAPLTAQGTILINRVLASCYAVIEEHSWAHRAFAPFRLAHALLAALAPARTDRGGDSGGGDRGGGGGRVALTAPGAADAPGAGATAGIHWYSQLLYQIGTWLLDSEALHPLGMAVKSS

Results are given in words; binding and its absence hold for the method and conditions named. Binding seen in cells or lysates may run through a third protein. Some entries that bind do so weakly or less than the wild type. Where a sequence is shown, tags or fusion partners need not be part of it.

The target in this assay is T1, KIAA0753-Flag (UniProt Q2KHM9).
T1 sequence: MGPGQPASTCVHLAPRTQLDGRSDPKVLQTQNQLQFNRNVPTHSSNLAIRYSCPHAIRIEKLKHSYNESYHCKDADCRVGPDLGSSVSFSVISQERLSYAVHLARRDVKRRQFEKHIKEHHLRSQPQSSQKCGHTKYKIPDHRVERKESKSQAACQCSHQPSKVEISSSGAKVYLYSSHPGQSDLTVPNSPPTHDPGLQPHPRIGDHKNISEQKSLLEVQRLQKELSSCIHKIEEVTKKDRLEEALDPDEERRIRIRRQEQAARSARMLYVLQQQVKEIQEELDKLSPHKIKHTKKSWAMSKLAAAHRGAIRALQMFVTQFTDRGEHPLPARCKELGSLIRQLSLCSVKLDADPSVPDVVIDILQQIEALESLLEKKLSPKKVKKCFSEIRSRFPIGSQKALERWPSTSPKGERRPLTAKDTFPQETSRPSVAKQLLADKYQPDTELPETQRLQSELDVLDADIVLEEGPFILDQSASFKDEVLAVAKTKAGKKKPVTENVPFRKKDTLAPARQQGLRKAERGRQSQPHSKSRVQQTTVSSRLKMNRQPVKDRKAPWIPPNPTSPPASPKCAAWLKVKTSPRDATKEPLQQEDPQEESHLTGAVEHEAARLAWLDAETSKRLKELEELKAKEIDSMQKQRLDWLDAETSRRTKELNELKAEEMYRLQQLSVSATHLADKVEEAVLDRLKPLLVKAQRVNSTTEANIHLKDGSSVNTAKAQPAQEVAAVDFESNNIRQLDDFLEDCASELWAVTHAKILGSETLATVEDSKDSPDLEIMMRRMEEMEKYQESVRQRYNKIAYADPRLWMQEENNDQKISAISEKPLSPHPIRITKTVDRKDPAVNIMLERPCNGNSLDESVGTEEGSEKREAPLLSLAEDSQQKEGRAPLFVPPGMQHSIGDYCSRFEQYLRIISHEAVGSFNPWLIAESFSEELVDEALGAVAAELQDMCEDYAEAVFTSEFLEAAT
The assay is described as follows: co-IP; HEK293T cells transfected for 48 h; lysed in RIPA buffer with PMSF; lysate incubated with antibody of Flag, KIAA0753, Gli2 or IgG at 4°C for 24 h; captured with Protein A+G Agarose; washed 10 times with PBS; western blot.

For Gli2-Myc (from UniProt P10070 1-1586), the binding result is on record as “binds”.

Take SHH-Flag (from UniProt Q15465 24-462): the binding entry is “binds”.
